In patent US6153605A, “Arylsecocholadiene derivatives” (priority 1997, dated 2000):

Tested on: normal mouse skin
Experiment: Activity assay hyperproliferative disorders: epidermal thickening (acanthosis) in hairless mice, oral
Assay type: in vivo, hairless mice (Moro hr/hr)
Conditions: calcitriol 3 days, test compounds 4 days
Method: Activity Assay Hyperproliferative Disorders
Orally administered vitamin D analogues can lead to epidermal thickening (acanthosis) in hairless mice. […] Compounds of formula I were tested for 4 days at different dosages in order to detect compounds which show this epidermal effect at subtoxic and non-toxic doses (dosage leading to slight or no weight loss). […] The calcitriol data were obtained from animals treated for three days.
Hairless mice (Moro hr/hr) received daily administrations of the test compound in arachis oil by gavage for 4 days, using 2-5 different dosages (3 fold increments; 2 animals per dosage group). The mice were sacrificed at day 5 and skin biopsies were taken, fixed in formalin and treated for histological evaluation. The epidermal thickness was measured at standard magnification using an occular grid. Daily measurements of body weight allows to judge toxicity (calcemic liability) and determine the non-toxic dose level defined as the dose which is tolerated without weight loss.
ED50 : dose (μg/kg) causing halfmaximal epidermal thickening
TI shift: shift in "therapeutic index", is defined as ratio ED50 /HT
for calcitriol divided by the ratio ED50 /HTP for the test compound

Row | SMILES | TI shift (shift in therapeutic index: ratio ED50/HTD for calcitriol divided by that for the test compound)
1 | C=C1/C(=C\C=C2/CCC[C@]3(C)[C@@H]([C@@H](C)C#Cc4cccc(C(C)(C)O)c4)CC[C@@H]23)C[C@@H](O)C[C@@H]1O [Example 14, (5Z,7E)-(1S,3R,20R)-23-[3-(1-Hydroxy-1-methyl-ethyl)-phenyl)-24-nor-9,10seco-chola-5,7,10(19)-trien-22-yne-1,3-diol] | 71
2 | C=C1/C(=C\C=C2/CCC[C@]3(C)[C@@H]([C@@H](C)C#Cc4ccccc4C(C)(C)O)CC[C@@H]23)C[C@@H](O)C[C@@H]1O [Example 16, (5Z,7E)-(1S,3R,20R)-23-[2-(1-Hydroxy-1-methyl-ethyl)-phenyl)-24-nor-9,10-seco-chola-5,7,10(19)-trien-22-yne-1,3-diol] | 100
3 | CC(C#Cc1ccccc1C(C)(C)O)[C@H]1CC[C@H]2/C(=C/C=C3C[C@@H](O)C[C@H](O)C3)CCC[C@]12C (stereo partly drawn) [Example 6, (7E)-(1R,3R)-23-[2-(1-Hydroxy-1-methyl-ethyl)-phenyl]-19,24-dinor-9,10-seco-chola-5,7-dien-22-yne-1,3-diol] | 8
4 | C=C1/C(=C\C=C2/CCC[C@]3(C)[C@@H]([C@H](C)CCCC(C)(C)O)CC[C@@H]23)C[C@@H](O)C[C@@H]1O [calcitriol, 1,25-dihydroxycholecalciferol, reference compound] | 1
